Measurements reported in the supplement of paper PMC4604168 (melanoma cell lines).
Some of the results follow. Single values are uncertain, as repeats are few or missing.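 Imaging used 1,536-well plates; nuclei positive for cleaved PARP by antibody were divided by total DNA-stained nuclei to yield the apoptosis fraction. Doses for screening kept most cells viable, and cell lines differ markedly in resting and induced cleaved-PARP levels.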

Key:
Test in all cases: cleaved PARP positive nuclei fraction relative to DMSO control; melanoma cells; higher = more apoptosis
Conditions in all cases: library dose: low library concentration; 72 h
501Mel = test system: 501Mel
A101D = test system: A101D
A2058 = test system: A2058
A375 = test system: A375
C32 = test system: C32
CBRC008 = test system: CBRC008 (line from a melanoma biopsy)
CBRC014 = test system: CBRC014 (line from a melanoma biopsy)
CBRC016 = test system: CBRC016 (line from a melanoma biopsy)
CBRC017 = test system: CBRC017 (line from a melanoma biopsy)
CBRC034 = test system: CBRC034 (line from a melanoma biopsy)
COLO792 = test system: COLO792
COLO800 = test system: COLO800
COLO829 = test system: COLO829
G361 = test system: G361
IPC-298 = test system: IPC-298
IST-MEL1 = test system: IST-MEL1
LB2518-MEL = test system: LB2518-MEL
LOXIMVI = test system: LOXIMVI
MEL-HO = test system: MEL-HO

| Compound | cleaved PARP positive nuclei fraction (501Mel) | cleaved PARP positive nuclei fraction (A101D) | cleaved PARP positive nuclei fraction (A2058) | cleaved PARP positive nuclei fraction (A375) | cleaved PARP positive nuclei fraction (C32) | cleaved PARP positive nuclei fraction (CBRC008) | cleaved PARP positive nuclei fraction (CBRC014) | cleaved PARP positive nuclei fraction (CBRC016) | cleaved PARP positive nuclei fraction (CBRC017) | cleaved PARP positive nuclei fraction (CBRC034) | cleaved PARP positive nuclei fraction (COLO792) | cleaved PARP positive nuclei fraction (COLO800) | cleaved PARP positive nuclei fraction (COLO829) | cleaved PARP positive nuclei fraction (G361) | cleaved PARP positive nuclei fraction (IPC-298) | cleaved PARP positive nuclei fraction (IST-MEL1) | cleaved PARP positive nuclei fraction (LB2518-MEL) | cleaved PARP positive nuclei fraction (LOXIMVI) | cleaved PARP positive nuclei fraction (MEL-HO) |
| --- | --- | --- | --- | --- | --- | --- | --- | --- | --- | --- | --- | --- | --- | --- | --- | --- | --- | --- | --- |
| Cn1c(=O)n(-c2ccc(C(C)(C)C#N)cc2)c2c3cc(-c4cnc5ccccc5c4)ccc3ncc21 + Nc1cccc2c1CN(C1CCC(=O)NC1=O)C2=O [lenalidomide] (first compound 0.004 µM, partner dose 1 µM) | 138% | 53.1% | 107% | 270% | 75.2% | 203% | 88.6% | 97.3% | 95.4% | 103% | 80.2% | 79.4% | 82.8% | 114% | 183% | 146% | 109% | 159% | 189% |
| CS(=O)(=O)CCNCc1ccc(-c2ccc3ncnc(Nc4ccc(OCc5cccc(F)c5)c(Cl)c4)c3c2)o1 [lapatinib] + C=CCNC1=C2C[C@@H](C)C[C@H](OC)[C@H](O)[C@@H](C)/C=C(\C)[C@H](OC(N)=O)[C@@H](OC)/C=C\C=C(/C)C(=O)NC(=CC1=O)C2=O [Tanespimycin] (first compound 0.8 µM, partner dose 0.002 µM) | 66.2% | 48.9% | 102% | 187% | 84.8% | 81.8% | 112% | 96% | 102% | 58.2% | 103% | 96.3% | 91.6% | 76.6% | 39% | 63.1% | 69.6% | 71.1% | 80% |
| C[C@@H](Oc1cc(-c2cnn(C3CCNCC3)c2)cnc1N)c1c(Cl)ccc(F)c1Cl [Crizotinib] + Nc1ccn([C@@H]2O[C@H](CO)[C@@H](O)C2(F)F)c(=O)n1 [gemcitabine] (first compound 0.2 µM, partner dose 0.0004 µM) | 66.2% | 93.7% | 75.7% | 51.4% | 160% | 148% | 94.3% | 125% | 112% | 75.9% | 148% | 71% | 221% | 106% | 85.4% | 162% | 113% | 99% | 56.2% |
| O=C(O)[C@@H]1[O][Sb](=[O])([O][Sb]2(=[O])[O][C@H]([C@H](O)CO)[C@H](O)[C@H](C(=O)O)[O]2)[O][C@H]([C@H](O)CO)[C@@H]1O (stereo not given in full) [stibogluconate] + COc1ccc(Cl)c(Nc2nc3ccccc3nc2NS(=O)(=O)c2cccc(NC(=O)C(C)(C)N)c2)c1 [XL147] (first compound 2 µM, partner dose 0.8 µM) | 84.6% | 167% | 178% | 269% | 87.9% | 332% | 104% | 455% | 138% | 191% | 129% | 79% | 84.9% | 142% | 123% | 105% | 115% | 116% | 140% |
| CNC(=O)c1cc(Oc2ccc(NC(=O)Nc3ccc(Cl)c(C(F)(F)F)c3)cc2)ccn1 [sorafenib] + C=CCNC1=C2C[C@@H](C)C[C@H](OC)[C@H](O)[C@@H](C)/C=C(\C)[C@H](OC(N)=O)[C@@H](OC)/C=C\C=C(/C)C(=O)NC(=CC1=O)C2=O [Tanespimycin] (first compound 0.4 µM, partner dose 0.002 µM) | 82.9% | 95.6% | 49.8% | 40.6% | 167% | 130% | 111% | 103% | 110% | 155% | 188% | 109% | 157% | 73% | 45.8% | 137% | 115% | 56.5% | 123% |
| CC(C)C[C@H](NC(=O)[C@H](Cc1ccccc1)NC(=O)c1cnccn1)B(O)O [Bortezomib] + C=CCNC1=C2C[C@@H](C)C[C@H](OC)[C@H](O)[C@@H](C)/C=C(\C)[C@H](OC(N)=O)[C@@H](OC)/C=C\C=C(/C)C(=O)NC(=CC1=O)C2=O [Tanespimycin] (first compound 0.001 µM, partner dose 0.002 µM) | 407% | 430% | 119% | 91.5% | 161% | 2590% | 254% | 445% | 242% | 879% | 71.4% | 77.9% | 254% | 3500% | 124% | 107% | 737% | 46.8% | 98.3% |
| CC(C)C[C@H](NC(=O)[C@H](Cc1ccccc1)NC(=O)c1cnccn1)B(O)O [Bortezomib] + Nc1cccc2c1CN(C1CCC(=O)NC1=O)C2=O [lenalidomide] (first compound 0.001 µM, partner dose 1 µM) | 169% | 473% | 76.7% | 84.3% | 74.8% | 536% | 765% | 305% | 652% | 383% | 69.7% | 64.5% | 185% | 4240% | 62.7% | 197% | 459% | 70.1% | 114% |
| CC(C)C[C@H](NC(=O)[C@H](Cc1ccccc1)NC(=O)c1cnccn1)B(O)O [Bortezomib] + CO[C@H]1C[C@@H]2CC[C@@H](C)[C@@](O)(O2)C(=O)C(=O)N2CCCC[C@H]2C(=O)O[C@H]([C@H](C)C[C@@H]2CC[C@@H](OCCO)[C@H](OC)C2)CC(=O)[C@H](C)/C=C(\C)[C@@H](O)[C@@H](OC)C(=O)[C@H](C)C[C@H](C)/C=C/C=C/C=C/1C [everolimus] (first compound 0.001 µM, partner dose 0.02 µM) | 2240% | 535% | 133% | 555% | 163% | 988% | 240% | 558% | 401% | 423% | 147% | 177% | 220% | 2710% | 172% | 456% | 258% | 196% | 155% |
| CC(C)C[C@H](NC(=O)[C@H](Cc1ccccc1)NC(=O)c1cnccn1)B(O)O [Bortezomib] + CN1CCN(c2ccc3nc(-c4c(N)c5c(F)cccc5[nH]c4=O)[nH]c3c2)CC1 [Dovitinib] (first compound 0.001 µM, partner dose 0.1 µM) | 1180% | 1400% | 169% | 139% | 85.7% | 2860% | 193% | 1460% | 488% | 213% | 110% | 106% | 344% | 8870% | 106% | 176% | 708% | 325% | 74.7% |
| C[C@@H](Oc1cc(-c2cnn(C3CCNCC3)c2)cnc1N)c1c(Cl)ccc(F)c1Cl [Crizotinib] + Clc1ccc(Nc2nnc(Cc3ccncc3)c3ccccc23)cc1 [vatalanib] (first compound 0.2 µM, partner dose 2 µM) | 333% | 150% | 115% | 36.5% | 82.5% | 45.1% | 108% | 103% | 109% | 134% | 76.2% | 88.3% | 150% | 161% | 85.3% | 85.4% | 224% | 116% | 122% |
| Nc1ccn([C@@H]2O[C@H](CO)[C@@H](O)C2(F)F)c(=O)n1 [gemcitabine] + Nc1nc(F)nc2c1ncn2[C@@H]1O[C@H](CO)[C@@H](O)[C@@H]1O [fludarabine] (first compound 0.0004 µM, partner dose 0.2 µM) | 12500% | 114% | 241% | 4580% | 90.2% | 31.7% | 194% | 336% | 174% | 122% | 100% | 130% | 95.3% | 110% | 153% | 66.9% | 102% | 92.3% | 114% |
| CC(C)C[C@H](NC(=O)[C@H](Cc1ccccc1)NC(=O)c1cnccn1)B(O)O [Bortezomib] + Cn1nnc2c(C(N)=O)ncn2c1=O [temozolomide] (first compound 0.001 µM, partner dose 2 µM) | 720% | 580% | 144% | 195% | 81.4% | 3440% | 875% | 893% | 4950% | 733% | 74.7% | 104% | 152% | 7110% | 182% | 102% | 1140% | 323% | 220% |
| CO[C@H]1C[C@@H]2CC[C@@H](C)[C@@](O)(O2)C(=O)C(=O)N2CCCC[C@H]2C(=O)O[C@H]([C@H](C)C[C@@H]2CC[C@@H](OCCO)[C@H](OC)C2)CC(=O)[C@H](C)/C=C(\C)[C@@H](O)[C@@H](OC)C(=O)[C@H](C)C[C@H](C)/C=C/C=C/C=C/1C [everolimus] + COc1ccc(Cl)c(Nc2nc3ccccc3nc2NS(=O)(=O)c2cccc(NC(=O)C(C)(C)N)c2)c1 [XL147] (first compound 0.02 µM, partner dose 0.8 µM) | 357% | 76% | 105% | 756% | 75.1% | 257% | 117% | 96.2% | 113% | 51.9% | 224% | 128% | 49.6% | 207% | 58.5% | 83% | 143% | 92.5% | 196% |
| CNC(=O)c1cc(Oc2ccc(NC(=O)Nc3ccc(Cl)c(C(F)(F)F)c3)cc2)ccn1 [sorafenib] + Cc1nc(Nc2ncc(C(=O)Nc3c(C)cccc3Cl)s2)cc(N2CCN(CCO)CC2)n1 [dasatanib] (first compound 0.4 µM, partner dose 0.004 µM) | 102% | 231% | 159% | 122% | 171% | 187% | 105% | 96.1% | 111% | 99.8% | 128% | 103% | 47.2% | 37.2% | 197% | 71.9% | 46.6% | 77.1% | 76.1% |
| CS(=O)(=O)CCNCc1ccc(-c2ccc3ncnc(Nc4ccc(OCc5cccc(F)c5)c(Cl)c4)c3c2)o1 [lapatinib] + C=C(c1ccc(C(=O)O)cc1)c1cc2c(cc1C)C(C)(C)CCC2(C)C [Bexarotene] (first compound 0.8 µM, partner dose 2 µM) | 75.2% | 165% | 204% | 104% | 85.6% | 150% | 297% | 174% | 300% | 81% | 137% | 113% | 89.5% | 183% | 85.9% | 29.8% | 336% | 121% | 60.5% |

A different layout for part of the listing above.
Compound | cleaved PARP positive nuclei fraction (501Mel) | cleaved PARP positive nuclei fraction (A101D) | cleaved PARP positive nuclei fraction (A2058) | cleaved PARP positive nuclei fraction (A375) | cleaved PARP positive nuclei fraction (C32) | cleaved PARP positive nuclei fraction (CBRC008) | cleaved PARP positive nuclei fraction (CBRC014) | cleaved PARP positive nuclei fraction (CBRC016) | cleaved PARP positive nuclei fraction (CBRC017) | cleaved PARP positive nuclei fraction (CBRC034) | cleaved PARP positive nuclei fraction (COLO792) | cleaved PARP positive nuclei fraction (COLO800) | cleaved PARP positive nuclei fraction (COLO829) | cleaved PARP positive nuclei fraction (G361) | cleaved PARP positive nuclei fraction (IPC-298) | cleaved PARP positive nuclei fraction (IST-MEL1) | cleaved PARP positive nuclei fraction (LB2518-MEL) | cleaved PARP positive nuclei fraction (LOXIMVI) | cleaved PARP positive nuclei fraction (MEL-HO)
CS(=O)(=O)CCNCc1ccc(-c2ccc3ncnc(Nc4ccc(OCc5cccc(F)c5)c(Cl)c4)c3c2)o1 [lapatinib] + C=CCNC1=C2C[C@@H](C)C[C@H](OC)[C@H](O)[C@@H](C)/C=C(\C)[C@H](OC(N)=O)[C@@H](OC)/C=C\C=C(/C)C(=O)NC(=CC1=O)C2=O [Tanespimycin] (first compound 0.8 µM, partner dose 0.002 µM) | 66.2% | 48.9% | 102% | 187% | 84.8% | 81.8% | 112% | 96% | 102% | 58.2% | 103% | 96.3% | 91.6% | 76.6% | 39% | 63.1% | 69.6% | 71.1% | 80%
CC(C)C[C@H](NC(=O)[C@H](Cc1ccccc1)NC(=O)c1cnccn1)B(O)O [Bortezomib] + CO[C@H]1C[C@@H]2CC[C@@H](C)[C@@](O)(O2)C(=O)C(=O)N2CCCC[C@H]2C(=O)O[C@H]([C@H](C)C[C@@H]2CC[C@@H](OCCO)[C@H](OC)C2)CC(=O)[C@H](C)/C=C(\C)[C@@H](O)[C@@H](OC)C(=O)[C@H](C)C[C@H](C)/C=C/C=C/C=C/1C [everolimus] (first compound 0.001 µM, partner dose 0.02 µM) | 2240% | 535% | 133% | 555% | 163% | 988% | 240% | 558% | 401% | 423% | 147% | 177% | 220% | 2710% | 172% | 456% | 258% | 196% | 155%
